Laboratory results reported in PMC8214149.
No constants are given. Whether binding was seen depends on the method and setting. In cells and extracts the contact can be indirect. Some results given as binding are weak or reduced against the parent protein; the word gives no strength. Values belong to the molecule of their own block, whether it stands above or below them.

Protein sequences, listed by entry. Tags and fused reporters are not part of them.
UniProt Q01939: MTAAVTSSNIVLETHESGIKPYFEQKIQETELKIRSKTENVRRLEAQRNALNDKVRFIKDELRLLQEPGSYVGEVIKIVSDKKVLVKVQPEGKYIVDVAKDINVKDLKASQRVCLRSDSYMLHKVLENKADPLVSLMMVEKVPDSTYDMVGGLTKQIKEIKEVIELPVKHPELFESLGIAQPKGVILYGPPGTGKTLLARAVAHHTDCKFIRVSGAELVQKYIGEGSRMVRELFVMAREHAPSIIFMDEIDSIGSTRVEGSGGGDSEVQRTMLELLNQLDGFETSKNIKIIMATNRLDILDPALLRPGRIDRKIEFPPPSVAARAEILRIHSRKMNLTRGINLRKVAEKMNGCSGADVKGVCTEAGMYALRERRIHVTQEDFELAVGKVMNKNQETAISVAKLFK
UniProt P40327: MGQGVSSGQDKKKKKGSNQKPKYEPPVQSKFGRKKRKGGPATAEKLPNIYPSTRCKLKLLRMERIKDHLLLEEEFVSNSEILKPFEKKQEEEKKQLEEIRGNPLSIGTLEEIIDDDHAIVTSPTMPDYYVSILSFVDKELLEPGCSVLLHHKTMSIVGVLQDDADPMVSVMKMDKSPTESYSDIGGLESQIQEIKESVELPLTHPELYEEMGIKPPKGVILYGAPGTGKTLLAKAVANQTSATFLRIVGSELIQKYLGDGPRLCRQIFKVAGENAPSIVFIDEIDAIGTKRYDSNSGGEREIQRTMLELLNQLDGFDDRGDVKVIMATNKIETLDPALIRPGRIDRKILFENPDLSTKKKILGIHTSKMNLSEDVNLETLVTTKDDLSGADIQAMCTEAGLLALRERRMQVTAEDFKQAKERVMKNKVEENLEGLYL
UniProt P38737: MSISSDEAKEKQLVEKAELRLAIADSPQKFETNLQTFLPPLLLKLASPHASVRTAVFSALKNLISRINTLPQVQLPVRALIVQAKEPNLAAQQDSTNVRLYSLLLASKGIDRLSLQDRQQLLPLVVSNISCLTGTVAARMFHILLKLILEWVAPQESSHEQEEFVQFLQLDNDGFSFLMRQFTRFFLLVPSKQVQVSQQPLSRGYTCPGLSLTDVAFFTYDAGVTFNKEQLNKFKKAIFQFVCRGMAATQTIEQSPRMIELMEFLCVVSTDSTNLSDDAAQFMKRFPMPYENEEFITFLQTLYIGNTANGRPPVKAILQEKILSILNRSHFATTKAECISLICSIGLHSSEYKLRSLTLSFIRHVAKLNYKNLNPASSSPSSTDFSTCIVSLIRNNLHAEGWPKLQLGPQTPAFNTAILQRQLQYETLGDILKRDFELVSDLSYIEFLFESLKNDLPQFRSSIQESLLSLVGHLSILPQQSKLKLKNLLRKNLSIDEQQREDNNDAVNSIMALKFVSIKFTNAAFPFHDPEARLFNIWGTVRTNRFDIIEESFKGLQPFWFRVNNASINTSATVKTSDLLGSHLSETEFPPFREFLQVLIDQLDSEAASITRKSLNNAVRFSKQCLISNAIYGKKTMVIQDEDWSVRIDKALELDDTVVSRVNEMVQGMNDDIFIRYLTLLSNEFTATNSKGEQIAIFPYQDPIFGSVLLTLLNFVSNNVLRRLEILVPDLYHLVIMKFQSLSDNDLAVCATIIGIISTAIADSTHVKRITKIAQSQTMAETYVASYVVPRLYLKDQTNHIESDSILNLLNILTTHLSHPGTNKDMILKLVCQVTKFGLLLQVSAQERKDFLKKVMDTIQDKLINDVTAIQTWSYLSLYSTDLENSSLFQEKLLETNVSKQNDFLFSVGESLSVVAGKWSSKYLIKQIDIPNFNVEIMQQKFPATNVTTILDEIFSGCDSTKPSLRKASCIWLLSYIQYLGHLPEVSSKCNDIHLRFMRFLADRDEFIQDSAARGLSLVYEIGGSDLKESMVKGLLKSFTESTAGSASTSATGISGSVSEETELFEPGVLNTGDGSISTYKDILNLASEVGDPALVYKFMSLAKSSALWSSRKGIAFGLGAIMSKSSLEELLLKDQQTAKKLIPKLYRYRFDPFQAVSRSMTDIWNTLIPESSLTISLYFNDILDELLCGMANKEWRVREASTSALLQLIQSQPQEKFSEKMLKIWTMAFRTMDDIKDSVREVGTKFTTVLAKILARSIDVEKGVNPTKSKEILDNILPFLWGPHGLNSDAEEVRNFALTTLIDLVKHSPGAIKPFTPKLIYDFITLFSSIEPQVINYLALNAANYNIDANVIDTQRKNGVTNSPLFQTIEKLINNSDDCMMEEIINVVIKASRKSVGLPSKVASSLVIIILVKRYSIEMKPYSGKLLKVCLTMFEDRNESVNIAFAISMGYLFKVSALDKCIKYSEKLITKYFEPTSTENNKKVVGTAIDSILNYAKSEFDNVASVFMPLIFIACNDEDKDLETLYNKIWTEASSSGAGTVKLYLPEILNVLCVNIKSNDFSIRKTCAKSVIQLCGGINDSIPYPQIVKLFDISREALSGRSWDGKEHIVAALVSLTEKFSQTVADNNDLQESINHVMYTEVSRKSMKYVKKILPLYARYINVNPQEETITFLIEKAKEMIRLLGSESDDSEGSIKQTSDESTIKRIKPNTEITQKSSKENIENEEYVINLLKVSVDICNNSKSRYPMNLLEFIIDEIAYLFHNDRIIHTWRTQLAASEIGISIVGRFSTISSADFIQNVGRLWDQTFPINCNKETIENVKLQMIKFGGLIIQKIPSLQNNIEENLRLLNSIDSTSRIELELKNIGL
UniProt Q12495: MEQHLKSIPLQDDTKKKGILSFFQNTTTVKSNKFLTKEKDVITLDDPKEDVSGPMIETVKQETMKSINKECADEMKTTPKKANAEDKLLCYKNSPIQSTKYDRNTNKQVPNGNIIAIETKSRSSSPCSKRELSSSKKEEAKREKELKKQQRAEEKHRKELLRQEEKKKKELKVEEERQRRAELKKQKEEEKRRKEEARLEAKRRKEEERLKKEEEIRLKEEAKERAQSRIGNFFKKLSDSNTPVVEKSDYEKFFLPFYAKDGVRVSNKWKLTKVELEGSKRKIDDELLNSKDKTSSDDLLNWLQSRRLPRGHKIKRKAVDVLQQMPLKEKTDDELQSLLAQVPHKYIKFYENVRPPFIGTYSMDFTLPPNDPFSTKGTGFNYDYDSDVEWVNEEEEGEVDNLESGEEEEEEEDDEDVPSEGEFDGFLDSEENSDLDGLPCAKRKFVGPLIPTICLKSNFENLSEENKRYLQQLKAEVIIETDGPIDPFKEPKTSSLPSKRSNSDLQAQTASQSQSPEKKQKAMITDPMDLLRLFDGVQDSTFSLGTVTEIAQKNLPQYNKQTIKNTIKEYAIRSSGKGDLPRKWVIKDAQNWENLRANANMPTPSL
UniProt P43593: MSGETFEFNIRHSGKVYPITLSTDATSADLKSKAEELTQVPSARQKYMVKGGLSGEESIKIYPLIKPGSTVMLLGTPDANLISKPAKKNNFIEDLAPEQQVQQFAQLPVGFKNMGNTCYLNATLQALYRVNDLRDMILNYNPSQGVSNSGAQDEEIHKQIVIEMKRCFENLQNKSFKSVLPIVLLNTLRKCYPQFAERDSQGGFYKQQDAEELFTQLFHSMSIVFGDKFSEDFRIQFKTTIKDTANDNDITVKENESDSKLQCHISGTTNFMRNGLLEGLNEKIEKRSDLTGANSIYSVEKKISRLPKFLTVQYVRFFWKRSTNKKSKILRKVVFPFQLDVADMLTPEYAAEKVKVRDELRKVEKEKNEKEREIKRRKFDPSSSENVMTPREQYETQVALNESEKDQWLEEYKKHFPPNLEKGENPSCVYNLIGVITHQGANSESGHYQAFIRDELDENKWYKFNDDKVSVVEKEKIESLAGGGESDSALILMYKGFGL

Columns and labels:
[1] = molecular target: T1, Rpn1 (S. cerevisiae (endogenous in the yeast strain)) (UniProt P38764); experiment: cross-linking; DSSO (lysine-lysine) XL-MS of 100 μg affinity purified yeast 26S proteasome in PBS pH 7.4, 2.5 or 5 mM DSSO, 1 h 25 °C; LC-MSn; two biological replicates
T1 sequence: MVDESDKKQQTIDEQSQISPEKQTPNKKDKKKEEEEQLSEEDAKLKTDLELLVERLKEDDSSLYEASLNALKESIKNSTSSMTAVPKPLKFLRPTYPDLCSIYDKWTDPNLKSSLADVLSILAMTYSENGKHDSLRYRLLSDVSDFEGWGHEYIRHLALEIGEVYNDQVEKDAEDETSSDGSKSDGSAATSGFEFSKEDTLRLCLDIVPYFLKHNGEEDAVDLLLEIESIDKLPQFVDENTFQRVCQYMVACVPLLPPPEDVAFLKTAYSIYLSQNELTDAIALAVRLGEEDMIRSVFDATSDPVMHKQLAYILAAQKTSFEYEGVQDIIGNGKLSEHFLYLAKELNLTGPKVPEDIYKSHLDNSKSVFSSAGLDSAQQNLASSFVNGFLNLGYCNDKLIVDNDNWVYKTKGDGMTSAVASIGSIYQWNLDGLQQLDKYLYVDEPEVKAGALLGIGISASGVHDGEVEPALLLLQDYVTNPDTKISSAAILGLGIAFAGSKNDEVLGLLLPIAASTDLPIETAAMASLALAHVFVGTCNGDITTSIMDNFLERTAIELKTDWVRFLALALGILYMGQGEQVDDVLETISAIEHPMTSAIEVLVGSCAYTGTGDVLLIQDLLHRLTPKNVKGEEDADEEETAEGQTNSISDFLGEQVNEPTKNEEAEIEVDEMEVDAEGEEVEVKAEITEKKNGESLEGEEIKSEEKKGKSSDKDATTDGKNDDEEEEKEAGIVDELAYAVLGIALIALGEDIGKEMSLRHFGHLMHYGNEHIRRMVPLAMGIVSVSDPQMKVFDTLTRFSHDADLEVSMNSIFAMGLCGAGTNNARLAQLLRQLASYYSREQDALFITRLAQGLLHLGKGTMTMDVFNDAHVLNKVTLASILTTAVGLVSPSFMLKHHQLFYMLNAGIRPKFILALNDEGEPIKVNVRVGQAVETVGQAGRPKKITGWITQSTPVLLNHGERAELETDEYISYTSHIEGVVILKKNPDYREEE

[2] = molecular target: T2, Rpn6 (S. cerevisiae (endogenous in the yeast strain)) (UniProt Q12377); experiment: as above
T2 sequence: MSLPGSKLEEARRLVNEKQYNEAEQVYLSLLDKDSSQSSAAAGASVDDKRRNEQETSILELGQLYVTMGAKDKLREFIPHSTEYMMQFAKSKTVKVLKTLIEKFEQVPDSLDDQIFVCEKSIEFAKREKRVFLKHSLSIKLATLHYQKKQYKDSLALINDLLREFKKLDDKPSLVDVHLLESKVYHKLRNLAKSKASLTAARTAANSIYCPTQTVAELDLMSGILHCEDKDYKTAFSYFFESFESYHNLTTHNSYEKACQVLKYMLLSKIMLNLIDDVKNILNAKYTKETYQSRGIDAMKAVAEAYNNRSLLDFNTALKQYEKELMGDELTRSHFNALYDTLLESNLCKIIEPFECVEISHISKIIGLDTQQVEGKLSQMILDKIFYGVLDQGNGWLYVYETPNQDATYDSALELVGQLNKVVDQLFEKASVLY

[3] = molecular target: T3, Rpt1 (S. cerevisiae (endogenous in the yeast strain)) (UniProt P33299); experiment: as above
T3 sequence: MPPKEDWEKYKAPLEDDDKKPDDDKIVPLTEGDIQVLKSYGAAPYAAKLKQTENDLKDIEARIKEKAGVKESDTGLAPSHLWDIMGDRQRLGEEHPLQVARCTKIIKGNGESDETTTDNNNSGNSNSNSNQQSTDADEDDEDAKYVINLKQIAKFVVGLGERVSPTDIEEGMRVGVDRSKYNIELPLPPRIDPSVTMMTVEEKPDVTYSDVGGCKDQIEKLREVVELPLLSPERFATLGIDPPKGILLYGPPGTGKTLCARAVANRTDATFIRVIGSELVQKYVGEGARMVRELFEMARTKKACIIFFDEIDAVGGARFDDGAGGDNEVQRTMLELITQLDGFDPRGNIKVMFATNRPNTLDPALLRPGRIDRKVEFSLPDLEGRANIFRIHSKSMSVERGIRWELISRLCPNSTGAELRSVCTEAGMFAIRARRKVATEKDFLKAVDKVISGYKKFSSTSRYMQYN

[4] = molecular target: T4, Rpt3 (S. cerevisiae (endogenous in the yeast strain)) (UniProt P33298); experiment: as above
T4 sequence: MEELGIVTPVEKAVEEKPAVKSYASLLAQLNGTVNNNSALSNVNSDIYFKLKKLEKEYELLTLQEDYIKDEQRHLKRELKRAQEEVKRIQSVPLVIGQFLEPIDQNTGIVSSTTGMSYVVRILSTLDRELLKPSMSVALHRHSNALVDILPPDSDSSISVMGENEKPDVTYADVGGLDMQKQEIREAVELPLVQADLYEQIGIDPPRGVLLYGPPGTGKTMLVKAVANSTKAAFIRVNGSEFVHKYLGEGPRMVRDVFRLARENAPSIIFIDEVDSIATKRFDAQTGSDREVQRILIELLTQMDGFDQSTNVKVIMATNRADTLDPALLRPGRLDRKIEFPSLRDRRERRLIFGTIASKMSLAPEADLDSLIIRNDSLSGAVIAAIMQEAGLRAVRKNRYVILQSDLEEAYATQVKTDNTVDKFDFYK

[5] = molecular target: T4, Rpt3 (S. cerevisiae (endogenous in the yeast strain)); experiment: cross-linking; SDASO-L, -M and -S (NHS-diazirine) XL-MS of 100 μg affinity purified yeast 26S proteasome in PBS pH 7.4, 20 mM linker, 1 h 25 °C in the dark, UV 365 nm 30 min on ice; trypsin (SDASO-L also chymotrypsin) digests, LC-MSn; triplicates
[6] = molecular target: Rpt6 (S. cerevisiae (endogenous in the yeast strain)) (UniProt Q01939); experiment: as above
[7] = molecular target: T5, Rpn2 (S. cerevisiae (endogenous in the yeast strain)) (UniProt P32565); experiment: cross-linking; DSSO (lysine-lysine) XL-MS of 100 μg affinity purified yeast 26S proteasome in PBS pH 7.4, 2.5 or 5 mM DSSO, 1 h 25 °C; LC-MSn; two biological replicates
T5 sequence: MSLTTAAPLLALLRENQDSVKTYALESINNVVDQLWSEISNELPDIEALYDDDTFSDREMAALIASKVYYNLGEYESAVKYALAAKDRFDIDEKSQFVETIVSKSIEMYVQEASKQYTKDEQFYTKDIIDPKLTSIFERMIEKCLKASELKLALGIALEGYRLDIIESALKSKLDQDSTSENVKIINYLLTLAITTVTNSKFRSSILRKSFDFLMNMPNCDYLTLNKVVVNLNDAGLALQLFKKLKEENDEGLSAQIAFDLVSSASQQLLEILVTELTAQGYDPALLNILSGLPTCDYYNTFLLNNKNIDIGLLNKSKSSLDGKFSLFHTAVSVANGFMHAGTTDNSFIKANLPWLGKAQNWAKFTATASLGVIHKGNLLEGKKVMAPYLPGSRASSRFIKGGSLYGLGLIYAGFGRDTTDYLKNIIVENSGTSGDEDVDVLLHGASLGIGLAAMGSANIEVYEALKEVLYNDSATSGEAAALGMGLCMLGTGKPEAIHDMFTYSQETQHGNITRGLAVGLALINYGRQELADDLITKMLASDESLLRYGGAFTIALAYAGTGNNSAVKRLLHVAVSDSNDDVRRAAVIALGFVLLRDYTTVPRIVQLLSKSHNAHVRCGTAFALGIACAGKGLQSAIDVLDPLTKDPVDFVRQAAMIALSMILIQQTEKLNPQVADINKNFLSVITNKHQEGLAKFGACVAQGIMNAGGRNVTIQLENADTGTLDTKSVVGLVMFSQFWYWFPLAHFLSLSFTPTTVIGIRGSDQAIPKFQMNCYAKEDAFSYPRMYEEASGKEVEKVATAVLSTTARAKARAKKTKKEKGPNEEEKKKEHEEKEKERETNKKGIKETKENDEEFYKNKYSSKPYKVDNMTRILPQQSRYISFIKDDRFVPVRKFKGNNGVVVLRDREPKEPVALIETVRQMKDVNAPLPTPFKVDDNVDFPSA

[8] = molecular target: T5, Rpn2 (S. cerevisiae (endogenous in the yeast strain)); experiment: cross-linking; SDASO-L, -M and -S (NHS-diazirine) XL-MS of 100 μg affinity purified yeast 26S proteasome in PBS pH 7.4, 20 mM linker, 1 h 25 °C in the dark, UV 365 nm 30 min on ice; trypsin (SDASO-L also chymotrypsin) digests, LC-MSn; triplicates
[9] = molecular target: Rpt2 (S. cerevisiae (endogenous in the yeast strain)) (UniProt P40327); experiment: cross-linking; DSSO (lysine-lysine) XL-MS of 100 μg affinity purified yeast 26S proteasome in PBS pH 7.4, 2.5 or 5 mM DSSO, 1 h 25 °C; LC-MSn; two biological replicates
[10] = molecular target: T1, Rpn1 (S. cerevisiae (endogenous in the yeast strain)); experiment: cross-linking; SDASO-L, -M and -S (NHS-diazirine) XL-MS of 100 μg affinity purified yeast 26S proteasome in PBS pH 7.4, 20 mM linker, 1 h 25 °C in the dark, UV 365 nm 30 min on ice; trypsin (SDASO-L also chymotrypsin) digests, LC-MSn; triplicates
[11] = molecular target: T6, Rpn8 (S. cerevisiae (endogenous in the yeast strain)) (UniProt Q08723); experiment: as above
T6 sequence: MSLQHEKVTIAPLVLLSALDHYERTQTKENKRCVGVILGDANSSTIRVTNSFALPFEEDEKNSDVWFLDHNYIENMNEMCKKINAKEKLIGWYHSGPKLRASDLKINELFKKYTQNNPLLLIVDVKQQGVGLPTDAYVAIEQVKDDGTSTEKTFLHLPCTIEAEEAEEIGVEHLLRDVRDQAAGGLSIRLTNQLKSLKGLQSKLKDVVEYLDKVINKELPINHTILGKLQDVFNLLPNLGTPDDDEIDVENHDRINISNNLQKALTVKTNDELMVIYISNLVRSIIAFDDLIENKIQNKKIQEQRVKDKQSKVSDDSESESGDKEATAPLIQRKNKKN

[12] = molecular target: Rpt2 (S. cerevisiae (endogenous in the yeast strain)) (UniProt P40327); experiment: as above
[13] = molecular target: T7, 20S core particle subunit α5 (S. cerevisiae (endogenous in the yeast strain)) (UniProt P32379); experiment: as above
T7 sequence: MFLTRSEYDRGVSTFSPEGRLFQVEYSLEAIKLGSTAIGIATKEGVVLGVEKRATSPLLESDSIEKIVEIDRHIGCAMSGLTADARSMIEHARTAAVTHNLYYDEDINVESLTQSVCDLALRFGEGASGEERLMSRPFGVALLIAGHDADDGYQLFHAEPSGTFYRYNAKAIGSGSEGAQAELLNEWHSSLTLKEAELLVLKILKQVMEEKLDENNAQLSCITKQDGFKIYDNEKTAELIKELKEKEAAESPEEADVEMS

- binding [1]: binds
- binding [2]: binds
- binding [3]: binds
- binding [4]: binds
- binding [5]: binds
- binding [6]: binds
Molecule: Ecm29 (from UniProt P38737 1-1868)

- binding [7]: binds
- binding [8]: binds
Molecule: Rlf2 (from UniProt Q12495 1-606)

- binding [3]: binds
- binding [9]: binds
- binding [10]: binds
- binding [8]: binds
- binding [11]: binds
- binding [12]: binds
Molecule: Ubp6 (from UniProt P43593 1-499) (enzyme)

- binding [13]: binds
B1: 20S core particle subunit α4 (protein, UniProt P40303 1-254)
chain: MSGYDRALSIFSPDGHIFQVEYALEAVKRGTCAVGVKGKNCVVLGCERRSTLKLQDTRITPSKVSKIDSHVVLSFSGLNADSRILIEKARVEAQSHRLTLEDPVTVEYLTRYVAGVQQRYTQSGGVRPFGVSTLIAGFDPRDDEPKLYQTEPSGIYSSWSAQTIGRNSKTVREFLEKNYDRKEPPATVEECVKLTVRSLLEVVQTGAKNIEITVVKPDSDIVALSSEEINQYVTQIEQEKQEQQEQDKKKKSNH
